PubChem BioAssay AID1259424, University of Nebraska Medical Center, 2018

- Purpose: 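Find knockdowns that reproduce the expression shifts seen after KSR1 loss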 (primary screen)
- System: human HCT116 colon cancer cells
- Knock-down reagent: siRNA pool against human genes, 50 nM
- Detection: 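Log2 levels of six mRNAs (branched-DNA multiplex), adjusted by two reference genes and the non-targeting median, then scored against the average KSR1 knockdown pattern as Pearson r and euclidean distance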
- Reading the numbers: mean correlation with KSR1 profile and KSR1 correlation: higher = expression change more like KSR1 knockdown; mean distance from KSR1 profile: higher = expression change less like KSR1 knockdown
This is one part, drawn at random, of about 14,000 reagents tested. 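Higher correlation or smaller distance means closer resemblance to KSR1 loss; control wells, including KSR1 knockdowns, recur on many plates.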 Further read-outs or replicates are left out here. The record does not give: the time to read-out.

target	PubChem SID	mean correlation with KSR1 profile	mean distance from KSR1 profile	KSR1 correlation, replicate 1	KSR1 correlation, replicate 2
NUAK1	SID363999138	0.411	2.24	0.491	0.112
C1GALT1	SID364001515	-0.197	3.35	-0.34	0.0467
TAGLN	SID363994322	-0.674	2.96	-0.655	-0.636
SFXN3	SID364003536	0.162	2.38	0.0983	0.0726
OGDH	SID363993712	0.296	2.81	0.328	0.236
PLAC1	SID364002180	-0.361	1.77	-0.246	-0.481
DLL1	SID363996512	0.676	1.38	0.652	0.704
FLNC	SID363992720	0.107	1.36	0.215	-0.257
ABHD11	SID364003584	0.188	2.98	0.35	0.105
BCL7B	SID363992928	0.385	2.72	0.543	0.434
UBE2L6	SID363995222	-0.137	2.21	-0.351	0.125
ADH7	SID363991972	-0.172	4.78	-0.127	-0.152

The list goes on; the last 3 above are carried over.
target	PubChem SID	mean correlation with KSR1 profile	mean distance from KSR1 profile	KSR1 correlation, replicate 1	KSR1 correlation, replicate 2
BCL7B	SID363992928	0.385	2.72	0.543	0.434
UBE2L6	SID363995222	-0.137	2.21	-0.351	0.125
ADH7	SID363991972	-0.172	4.78	-0.127	-0.152
ZYG11B	SID364005104	-0.0291	2	-0.0248	0.371
MTERF3	SID363999738	0.0669	1.4	0.0136	0.0523
SLC26A4	SID363991772	-0.074	1.33	-0.0655	-0.405
XRCC2	SID363996337	-0.223	1.86	-0.358	-0.158
FOXP3	SID363998545	0.699	1.45	0.711	0.914
SLC30A5	SID364002594	0.177	3.48	0.191	0.0965
CD27	SID363992527	-0.153	1.5	0.00786	-0.00121
CRKL	SID363996130	-0.0877	3.3	-0.179	-0.0407
NDUFB10	SID363995519	0.399	1.09	0.5	0.46
PCDH1	SID363993756	0.381	1.84	0.139	0.484
PTPRE	SID363997301	0.596	1.45	0.605	0.429
CAV2	SID363992518	0.614	1.1	0.602	0.599
STAM	SID363994572	0.536	3.64	0.555	0.435
PITHD1	SID364001630	-0.317	4.25	-0.325	-0.372
TEX13A	SID364003564	-0.437	3.33	-0.464	-0.487
TMPRSS2	SID363996549	-0.304	2.43	0.0491	-0.657
MAGEH1	SID363998585	0.143	2.13	0.214	-0.215
HERPUD2	SID364002427	-0.401	1.59	-0.363	-0.782
TMEM41B	SID364005257	-0.266	1.87	-0.364	-0.282
ZBTB17	SID363994544	0.485	2.58	0.745	0.553
EIF1AX	SID363992677	-0.576	2.67	-0.531	-0.431
MT-ND5	SID364004846	-0.0706	1.93	-0.027	-0.0611
